Source: PMC4455066

Tests used:
[1] = target: T1, Ars2, tandem affinity tagged (bait) (S. pombe) (UniProt O94326); assay: affinity purification with mass spectrometry; tandem affinity purification of an FTP-tagged bait from S. pombe cell extract (IgG beads, TEV cleavage with Benzonase, anti-Flag beads, Flag peptide elution); 50 mM HEPES pH 7.0, 100 mM NaCl, 1.5 mM MgCl2, 0.15% NP-40; MALDI-TOF of single bands and LC-MS/MS of the whole eluate; wild-type cells, also red1Δ and rmn1Δ backgrounds
T1 sequence: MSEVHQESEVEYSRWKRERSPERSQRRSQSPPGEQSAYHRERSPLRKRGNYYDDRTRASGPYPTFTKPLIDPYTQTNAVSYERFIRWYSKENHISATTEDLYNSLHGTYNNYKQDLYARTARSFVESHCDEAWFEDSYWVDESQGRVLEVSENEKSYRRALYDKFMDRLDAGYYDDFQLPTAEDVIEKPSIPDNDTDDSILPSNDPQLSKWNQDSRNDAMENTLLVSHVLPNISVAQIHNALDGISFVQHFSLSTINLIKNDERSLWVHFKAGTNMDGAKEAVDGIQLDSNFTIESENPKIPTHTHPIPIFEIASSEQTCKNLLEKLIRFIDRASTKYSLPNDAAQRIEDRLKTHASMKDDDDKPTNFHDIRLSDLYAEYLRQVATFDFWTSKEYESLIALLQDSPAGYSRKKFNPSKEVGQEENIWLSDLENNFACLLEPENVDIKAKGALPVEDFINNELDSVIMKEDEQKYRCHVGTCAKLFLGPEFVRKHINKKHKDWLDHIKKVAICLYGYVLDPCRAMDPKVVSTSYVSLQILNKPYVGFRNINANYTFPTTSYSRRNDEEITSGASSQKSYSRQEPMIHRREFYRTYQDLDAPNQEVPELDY

Mtl1–FTP (S. pombe) = assay: as above
Red1–FTP (S. pombe) = target: T2, Red1–FTP (S. pombe) (UniProt Q9UTR8); assay: as above
T2 sequence: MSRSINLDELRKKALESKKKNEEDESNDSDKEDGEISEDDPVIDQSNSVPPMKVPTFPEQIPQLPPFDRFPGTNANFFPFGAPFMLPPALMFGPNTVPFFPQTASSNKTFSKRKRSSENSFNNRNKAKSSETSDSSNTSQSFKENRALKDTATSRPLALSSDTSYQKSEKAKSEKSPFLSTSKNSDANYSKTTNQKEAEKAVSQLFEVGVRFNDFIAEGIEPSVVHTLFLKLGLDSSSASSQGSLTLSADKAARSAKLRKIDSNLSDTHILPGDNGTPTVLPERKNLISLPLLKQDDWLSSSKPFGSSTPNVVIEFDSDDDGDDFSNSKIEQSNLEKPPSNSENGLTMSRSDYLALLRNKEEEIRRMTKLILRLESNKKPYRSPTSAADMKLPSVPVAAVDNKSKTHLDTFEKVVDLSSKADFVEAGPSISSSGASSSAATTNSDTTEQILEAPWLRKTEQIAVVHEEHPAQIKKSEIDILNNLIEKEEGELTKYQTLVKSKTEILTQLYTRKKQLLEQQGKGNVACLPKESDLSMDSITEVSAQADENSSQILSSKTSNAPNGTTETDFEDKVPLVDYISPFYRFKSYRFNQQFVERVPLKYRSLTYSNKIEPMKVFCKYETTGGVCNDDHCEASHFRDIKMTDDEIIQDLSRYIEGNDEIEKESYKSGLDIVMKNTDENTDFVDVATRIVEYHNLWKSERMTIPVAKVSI

Red5–FTP (S. pombe) = assay: as above
[2] = target: Iss10, split-tag bait (second purification step) (S. pombe); assay: affinity purification with mass spectrometry; split-tag purification: first step by Mtl1, second step by Iss10, Cbc1 or Pab2; from S. pombe cell extract
[3] = target: T3, Pab2, split-tag bait (second purification step) (S. pombe) (UniProt O14327); assay: as above
T3 sequence: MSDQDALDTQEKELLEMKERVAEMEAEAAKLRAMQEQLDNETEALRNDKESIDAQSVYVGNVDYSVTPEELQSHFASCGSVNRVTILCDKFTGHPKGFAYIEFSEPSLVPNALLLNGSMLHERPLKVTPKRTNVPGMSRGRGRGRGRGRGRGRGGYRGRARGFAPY

[4] = target: Mtl1, split-tag bait (first purification step) (S. pombe); assay: as above

Measured: binding

B1: Cbc1 (protein, UniProt O14253 1-780)
chain: MSSYRGSTRPRKRTREGENYGFRPHRGNSQELLAARIKKDITFLADPRGNSVAADDINYVAMSLSREANDPETISTILDCIQTTAFIIPVKIPHLATLIIRASLRVPLILEKAAAYFCLQYFTNLNSFLYYEAKVDLRMLICMSFALQPGTLKPLFSLLADAISKETKPSVWGDNFLRIILINLPYFIAANNDLGKKDFANEILDQCEIYVRHRKSSITLSNPLSIHDNLSEEELDLLYKQLILSRENDFTFPYISQPWKFFESDFVHIVPVSPSIPEWTFQPTPQQNELPSFKRFFELFNNFEIRTTPDASDVAASIFRDISVDVINHLEFNRVEAAQVLTDLDVYFTYKTFALRGTPVNELPNLDPSESRWKAEDIIVEAVLGELLGSQNTTYKPVYYHSLLIECCRIAPKILAPTFGRVIRLMYTMSSDLPLQTLDRFIDWFSHHLSNFNFHWKWNEWIPDVELDDLHPKKVFMRETITRELILSYYTRISDSLPEELRCLLGEQPSGPNFVYENETHPLYQQSSQIIEALRLHKPLEELDIILQSEEIQNSETSAVRLVMSCAYSLGSRSFSHALNVFEKHLNTLKHFSRKSLDSEIEVVDELFSFWKLQPFNAVMWLDKMLNYSIISITSIIEWLIKQDVTIWSRSYTWSLVNTTFNKLAARLRRSVSNKEDSSLINEANEEKEIVTNLLLSALRALISENAENIWVSHWLNLMLKYVESNFLSVKKDTIEEANEPVQENTSEEQEDTKMQPVDAVDEQPSENNQTAADATNEEK
binds: all assays above

No constants are given. Whether binding was seen depends on the method and setting. In cells and extracts the contact can be indirect. A yes stands for co-enrichment or nearness to the bait. Other partners may have been found. For some of these results: Sequences can lack the tags named with a protein.
